In article PMC5286426, “The Calcium-Dependent Switch Helix of L-Plastin Regulates Actin Bundling” (Scientific Reports, 2017):
No constants are given. Whether binding was seen depends on the method and setting.

Target: T1, L-plastin ABD2 (residues 384-627) (human) (UniProt P13796)
T1 sequence: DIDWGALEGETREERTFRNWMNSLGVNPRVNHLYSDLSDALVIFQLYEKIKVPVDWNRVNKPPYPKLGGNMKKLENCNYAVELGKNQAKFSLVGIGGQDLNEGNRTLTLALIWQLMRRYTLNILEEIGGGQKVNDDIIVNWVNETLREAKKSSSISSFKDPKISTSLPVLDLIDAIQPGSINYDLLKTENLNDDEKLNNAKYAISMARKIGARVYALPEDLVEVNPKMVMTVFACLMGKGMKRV
Test: NMR titration; synthetic H5 peptide titrated into 15N-labelled ABD2 (residues 384-627); 1H,15N HSQC; both purified

binding: no binding
Binder: STDVAKTFRKAINKKEGI (N-terminal acetyl (Ac-); C-terminal amide (-NH2)) [synthetic H5 peptide representing the H5 region of LPL (residues 83-100)]
